Experimental data taken from publication PMC11781183.
These are yes or no findings as the source states them, for the method shown. In cells and extracts the contact can be indirect. Some entries that bind do so weakly or less than the wild type.

By UniProt entry, the sequences of proteins in these tests, tags left out.
UniProt P35222: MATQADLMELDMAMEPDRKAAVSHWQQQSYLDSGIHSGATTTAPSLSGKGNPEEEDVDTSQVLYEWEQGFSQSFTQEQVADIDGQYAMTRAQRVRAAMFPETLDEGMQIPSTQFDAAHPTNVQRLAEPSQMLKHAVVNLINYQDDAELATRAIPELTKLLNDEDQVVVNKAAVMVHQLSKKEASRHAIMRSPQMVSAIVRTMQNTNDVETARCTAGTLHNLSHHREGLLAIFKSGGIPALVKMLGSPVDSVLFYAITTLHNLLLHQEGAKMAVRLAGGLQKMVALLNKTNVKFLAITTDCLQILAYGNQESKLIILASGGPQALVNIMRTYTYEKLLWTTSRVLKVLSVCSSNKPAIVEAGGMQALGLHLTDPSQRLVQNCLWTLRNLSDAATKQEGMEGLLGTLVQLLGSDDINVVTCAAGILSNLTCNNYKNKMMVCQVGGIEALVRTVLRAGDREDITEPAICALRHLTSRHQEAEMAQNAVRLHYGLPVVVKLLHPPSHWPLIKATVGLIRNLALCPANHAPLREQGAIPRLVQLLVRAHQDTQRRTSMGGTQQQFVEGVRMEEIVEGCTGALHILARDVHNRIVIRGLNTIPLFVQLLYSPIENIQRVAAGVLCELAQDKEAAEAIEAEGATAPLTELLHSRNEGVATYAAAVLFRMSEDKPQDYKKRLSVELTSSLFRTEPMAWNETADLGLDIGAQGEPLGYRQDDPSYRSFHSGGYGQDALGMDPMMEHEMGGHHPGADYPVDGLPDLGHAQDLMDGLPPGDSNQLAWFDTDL
UniProt Q92841: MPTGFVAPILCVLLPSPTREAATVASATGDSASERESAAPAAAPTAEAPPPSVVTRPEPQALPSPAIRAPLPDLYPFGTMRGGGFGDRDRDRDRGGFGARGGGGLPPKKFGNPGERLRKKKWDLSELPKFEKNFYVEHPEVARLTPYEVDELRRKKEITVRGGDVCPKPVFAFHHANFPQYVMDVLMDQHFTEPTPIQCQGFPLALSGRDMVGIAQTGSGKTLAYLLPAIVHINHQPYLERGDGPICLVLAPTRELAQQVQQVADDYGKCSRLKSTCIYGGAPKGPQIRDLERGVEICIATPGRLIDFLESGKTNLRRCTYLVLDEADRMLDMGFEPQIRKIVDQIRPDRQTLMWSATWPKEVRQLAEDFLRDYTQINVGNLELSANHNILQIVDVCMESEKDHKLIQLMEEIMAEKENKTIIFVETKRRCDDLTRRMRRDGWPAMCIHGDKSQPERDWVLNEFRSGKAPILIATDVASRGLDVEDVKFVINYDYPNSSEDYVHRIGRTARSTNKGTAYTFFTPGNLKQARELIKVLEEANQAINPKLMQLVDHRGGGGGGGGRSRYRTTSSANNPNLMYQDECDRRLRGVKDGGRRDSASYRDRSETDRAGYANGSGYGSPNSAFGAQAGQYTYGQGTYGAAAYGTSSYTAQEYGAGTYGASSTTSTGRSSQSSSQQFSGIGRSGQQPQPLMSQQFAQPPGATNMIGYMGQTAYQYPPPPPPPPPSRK

Columns and labels:
[1] = target: β-catenin, endogenous (human (endogenous in HepG2, Huh7, SK-hep1)) (UniProt P35222); assay: co-IP; nuclear extracts of cells with DDX17 overexpression; IP with anti-β-catenin, Western blotting
[2] = target: β-catenin, endogenous (human (endogenous in HepG2, Huh7, SK-hep1)) (UniProt P35222); assay: co-IP; Pierce Co-IP Kit; extracts of HCC cells (HepG2, Huh7, SK-hep1; parent cells or cells with lentiviral DDX17 overexpression) incubated overnight with anti-DDX17, anti-β-catenin or anti-p65, isotype IgG as negative control; Western blotting; some cells stimulated with rCXCL8 (50 ng/mL, 24 h), TNFα (15 ng/mL, 24 h) or IL-1β (10 ng/mL, 24 h)
[3] = target: HA-DDX17 (human) (UniProt Q92841); assay: co-IP; 293T cells co-transfected with HA-DDX17, c-Myc-β-catenin and Flag-p65 plasmids; IP with anti-HA
[4] = target: DEAD-box RNA helicase 17 (DDX17), endogenous (human (endogenous in HepG2, Huh7, SK-hep1)) (UniProt Q92841); assay: co-IP; Pierce Co-IP Kit; extracts of HCC cells (HepG2, Huh7, SK-hep1; parent cells or cells with lentiviral DDX17 overexpression) incubated overnight with anti-DDX17, anti-β-catenin or anti-p65, isotype IgG as negative control; Western blotting; some cells stimulated with rCXCL8 (50 ng/mL, 24 h), TNFα (15 ng/mL, 24 h) or IL-1β (10 ng/mL, 24 h)
[5] = target: DDX17, ectopic (lentiviral overexpression, full-length human DDX17 cDNA in GV341) (human) (UniProt Q92841); assay: as above
[6] = target: DEAD-box RNA helicase 17 (DDX17), endogenous (human (endogenous in HepG2, Huh7, SK-hep1)) (UniProt Q92841); assay: proximity ligation; Duolink In Situ Red Starter Kit Mouse/Rabbit; fixed, permeabilised cells; mouse anti-DDX17 with rabbit anti-β-catenin or rabbit anti-p65; confocal microscopy

DDX17, ectopic (lentiviral overexpression, full-length human DDX17 cDNA in GV341) (from UniProt Q92841 1-729)
binding [1]: binds | binding [2]: binds

DEAD-box RNA helicase 17 (DDX17), endogenous (from UniProt Q92841 1-729)
binding [2]: binds

c-Myc-β-catenin (from UniProt P35222 1-781)
binding [3]: binds

β-catenin, endogenous (from UniProt P35222 1-781)
binding [4]: binds | binding [5]: binds | binding [6]: binds
